Primary screen of a compound library

Protein sequences, listed by entry. Tags and fused reporters are not part of them. Residues count along the entry.
UniProt P9WFT3, whole entry: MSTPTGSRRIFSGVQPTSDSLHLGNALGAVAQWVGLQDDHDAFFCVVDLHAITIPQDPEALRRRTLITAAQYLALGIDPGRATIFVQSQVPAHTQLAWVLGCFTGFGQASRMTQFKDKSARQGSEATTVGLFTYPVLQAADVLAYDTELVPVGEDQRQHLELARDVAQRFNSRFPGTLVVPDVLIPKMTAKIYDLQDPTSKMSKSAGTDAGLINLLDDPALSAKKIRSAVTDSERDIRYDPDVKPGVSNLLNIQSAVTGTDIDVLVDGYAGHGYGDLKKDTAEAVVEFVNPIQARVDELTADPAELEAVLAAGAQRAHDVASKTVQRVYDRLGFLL
UniProt A4I591, 1-473: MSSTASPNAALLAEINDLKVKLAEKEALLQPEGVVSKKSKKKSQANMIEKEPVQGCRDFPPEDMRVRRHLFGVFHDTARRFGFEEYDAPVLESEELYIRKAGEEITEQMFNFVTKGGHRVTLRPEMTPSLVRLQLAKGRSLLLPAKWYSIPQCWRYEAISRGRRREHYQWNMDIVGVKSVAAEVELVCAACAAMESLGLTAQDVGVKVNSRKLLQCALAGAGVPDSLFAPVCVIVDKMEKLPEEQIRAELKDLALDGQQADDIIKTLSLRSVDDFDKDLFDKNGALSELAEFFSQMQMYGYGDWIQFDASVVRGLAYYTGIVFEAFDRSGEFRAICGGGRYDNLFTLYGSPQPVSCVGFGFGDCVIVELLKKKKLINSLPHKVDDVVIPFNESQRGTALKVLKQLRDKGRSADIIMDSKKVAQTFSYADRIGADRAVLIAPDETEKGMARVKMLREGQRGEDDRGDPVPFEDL

Data taken from ChEMBL document CHEMBL3988442, “University of Dundee, Small-Polar-MMV Screening Library” (2021).

MtTrpRS: 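Tryptophan-tRNA ligase, Mycobacterium tuberculosis (UniProt P9WFT3). Enzyme assay of tryptophanyl-tRNA synthetase; the read-out is not stated. Compounds at 10 µM. Direction is not recorded; retested compounds ran higher, which suggests that high means inhibition. Of about 65,000 compounds tested this way, about 64 (0.098%) reached 50% or more in at least one test.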
LiHisRS: 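Enzyme assay of histidyl-tRNA synthetase; the read-out is not stated. Target: Histidine-tRNA ligase, Leishmania infantum (UniProt A4I591). Tested at 30 µM. Higher reads as stronger inhibition (inferred: compounds with an IC50 in retests scored well above the rest). The assay is labelled LdHisRS but filed under L. infantum. Of about 69,000 compounds tested this way, about 410 (0.6%) reached 50% or more in at least one test.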

The filed quantity is “Percent Effect” (%).
The record does not define 0% and 100%; most values in the screen are far below 50% and negative numbers occur (in some assays of this library far below -100).
This is an unselected part of the compounds tested.
A dash means the value is not listed here; it may have been measured.

compound	MtTrpRS	LiHisRS
COc1ccc2c(c1)nc1n2[C@@H](CNCc2nccs2)COC1	-3.087	19.44
Cc1cccn2c(=O)cc(OC(=O)c3ccccc3)nc12	0.5297	-2.857
C1CCC(N2CCCN(c3nc(C4CC4)no3)CC2)C1	-5.61	6.897
CCNC(=O)Nc1ccc2c(ccn2CC(=O)N(CC)CC)c1	-0.3145	15.2
Cc1ccc(-c2nc(CN3CC(n4nc(C)cc4C)C3)no2)cc1	-1.356	15.29
Cn1cc(S(=O)(=O)NC(CO)Cc2c[nH]c3ccccc23)cn1 (configuration not stated)	7.534	25.71
CN1CCN(CC2CC2)C(=O)c2cnc(N3CCC(CO)CC3)nc21	-	20
Cc1nc(C)n(CC2CCCN(CCC(=O)NC3CCCC3)C2)n1 (configuration not stated)	7.524	11.5
Cc1ccc(CNCC(C)Oc2ccccn2)cc1 (configuration not stated)	1.331	13.16
O=C(CC1CCCO1)Nc1ccn(Cc2cccc3cccnc23)n1 (configuration not stated)	-2.571	14.52
COCC(=O)N[C@H](C)c1onc(-c2ccc(Cl)cc2)c1C(=O)O	1.442	14.86
O=C1Nc2ccccc2CC12CCCN2Cc1ccc(F)cc1 (configuration not stated)	0.08643	1.379
CCCN1CCC(CC(=O)N[C@H](C(=O)O)c2cccc(F)c2F)CC1	0.729	11.11
O=C(c1cnc(NCC2CCCO2)c(Cl)c1)N1CCOCC1 (configuration not stated)	-2.271	0
COc1ccc(C)cc1CNC(=O)C1=NN(c2ccccc2)C(=O)CN1	-5.717	16.39
CC(=O)N(Cc1ncc(C(C)C)o1)C1CCN(Cc2cc(C)no2)C1 (configuration not stated)	-3.096	18.35
Cc1ccc(CN2CCN(c3nc4c(s3)c(C)nn4C)C(C)C2=O)cc1 (configuration not stated)	5.045	6.061
CC(=O)Nc1nc(C(=O)NCc2ccnc(N3CCCC3)c2)cs1	-6.134	9.565
O=C1CC(c2ccncc2)C2(CCN(C(=O)c3ccc[nH]3)CC2)N1 (configuration not stated)	-0.4359	18.05
COc1cc(CCC(=O)N2CCC(c3cc4nccnc4[nH]3)CC2)on1	3.43	11.27
Cc1cccc(C(=O)N2C[C@@H]3[C@H](CC(=O)Nc4cccnc4)[C@@H]3C2)n1	-0.7276	9.709
COc1cc(OC)nc(N2CCCC(c3nccn3CCN(C)C)C2)n1 (configuration not stated)	-0.8392	3.529
COc1cccc2c3c(c(=O)n(C)c12)CCC(C)(C)O3	8.728	21.84
CN(Cc1cccc(F)c1)C(=O)CN1CCCC(Cn2cncn2)C1 (configuration not stated)	3.579	20.43
CCCn1ccnc1CN1CCC(O)(CN2CCCCC2)C1 (configuration not stated)	4.122	16.46
Cn1ncc2c1NC(=O)CC2c1cccs1 (configuration not stated)	-2.177	20.65
Cc1cc2nc(-c3ccccc3)cc(NCC3CCCOC3)n2n1 (configuration not stated)	-1.493	29.11
Cc1nn(C)cc1S(=O)(=O)NCC(c1ccccc1)N1CCCCCC1 (configuration not stated)	16.15	2.878
CC(C)Nc1nc(N2CCCC2)nc2c1CN(c1ncc(F)cn1)CC2	-3.812	16.67
CC(C)Cc1noc(CNc2cc3c(cc2Cl)OCCCO3)n1	-2.72	-1.075
CCC(=O)NC(C)c1ccccc1C (configuration not stated)	4.996	5.882
CC(C)Cc1noc(CN(C)C2CCCC2)n1	-1.398	-1.961
CN(CC(C)(CO)CO)C(=O)Nc1cc(F)cc(Cl)c1	-0.2447	14.94
Cc1cc(-c2cnn(CCNC(=O)C3CC3)c2C2CC2)on1	0.9167	-5.714
Cn1cc(NC(=O)CNC(=O)N2CCN(c3ccc(F)cc3)CC2)cn1	-0.6159	16.48
Cc1cnn(CCNCc2csc(-c3ncccn3)n2)c1	-0.565	23.21
CSc1ccc(CN2CCC(CCC(=O)Nc3ccccc3)CC2)cc1	9.779	-3.419
Cc1cc(N2CCC(NC(C)Cc3ccsc3)CC2)nc(N)n1 (configuration not stated)	1.538	15.05
COc1c(CNC(c2ccc(F)cc2)c2nccn2C)c(C)nn1C (configuration not stated)	4.088	23.2
CCn1ccnc1CN1CCN(C(C)C(=O)NCc2ccco2)CC1 (configuration not stated)	-1.961	6.25
CCCSc1ccccc1NC(=O)N1CCN(C(=O)c2ccc[nH]2)CC1	5.733	12.68
Cc1ccc(CNC(=O)N(Cc2ccccc2F)C2CC2)cn1	2.131	18.45
c1cnc(N2CCO[C@H]3CN(CC4CCOCC4)C[C@H]32)nc1	-	11.71
Cc1cnn(CCNCc2csc(-c3ccccc3)n2)c1	-10.73	32.14
CC(=O)N1CC[C@H]2NC(=O)N(Cc3ccccc3)C(=O)[C@H]21	7.455	22.22
N#Cc1cc2c(nc1SCc1cc(O)nc(O)n1)CCCC2	-	12.37
CCSCc1nc(O)c2nnn(C3CCN(Cc4ccco4)CC3)c2n1	8.073	14.39
CS(=O)(=O)NCC(=O)NC1CCCN(c2ccccn2)C1 (configuration not stated)	-6.082	14.49
Cc1cnc(N2CC[C@@H]3O[C@@H](COCC(=O)N(C)C)CC[C@@H]32)nc1	3.856	27.16
CCN1CCCn2c(nc(CNC(=O)c3cnoc3C)cc2=O)C1	3.434	6.195

Some entries from above, unchanged:

{"compound": "Cn1ncc2c1NC(=O)CC2c1cccs1", "stereo": "configuration not stated", "MtTrpRS": -2.177, "LiHisRS": 20.65}
{"compound": "CCn1ccnc1CN1CCN(C(C)C(=O)NCc2ccco2)CC1", "stereo": "configuration not stated", "MtTrpRS": -1.961, "LiHisRS": 6.25}
{"compound": "N#Cc1cc2c(nc1SCc1cc(O)nc(O)n1)CCCC2", "LiHisRS": 12.37}
{"compound": "CS(=O)(=O)NCC(=O)NC1CCCN(c2ccccn2)C1", "stereo": "configuration not stated", "MtTrpRS": -6.082, "LiHisRS": 14.49}
{"compound": "Cc1cnc(N2CC[C@@H]3O[C@@H](COCC(=O)N(C)C)CC[C@@H]32)nc1", "MtTrpRS": 3.856, "LiHisRS": 27.16}